These are yes or no findings as the source states them, for the method shown. Binding seen in cells or lysates may run through a third protein. Some entries that bind do so weakly or less than the wild type.
Tests used:
[1] = biological target: vascular endothelial growth factor receptor-2 (VEGFR2), human (human) (UniProt P35968); assay: GST pull-down on glutathione beads from CAG myeloma cell lysate, immunoblot
[2] = biological target: T1, VLA-4 (very late antigen-4, α4β1 integrin), human (human) (UniProt P13612+P05556); assay: as above
[3] = biological target: vascular endothelial growth factor receptor-2 (VEGFR2), human (human) (UniProt P35968); assay: GST pull-down on glutathione beads from HMEC-1 cell lysate, immunoblot
[4] = biological target: T1, VLA-4 (very late antigen-4, α4β1 integrin), human (human); assay: as above

The chains behind the UniProt entries cited, without tags or fusion partners. Where a name states a change or a piece, a line headed by the entry shows the natural chain unless it says otherwise. Residues count along the entry.
UniProt P35968, residues 20-1356: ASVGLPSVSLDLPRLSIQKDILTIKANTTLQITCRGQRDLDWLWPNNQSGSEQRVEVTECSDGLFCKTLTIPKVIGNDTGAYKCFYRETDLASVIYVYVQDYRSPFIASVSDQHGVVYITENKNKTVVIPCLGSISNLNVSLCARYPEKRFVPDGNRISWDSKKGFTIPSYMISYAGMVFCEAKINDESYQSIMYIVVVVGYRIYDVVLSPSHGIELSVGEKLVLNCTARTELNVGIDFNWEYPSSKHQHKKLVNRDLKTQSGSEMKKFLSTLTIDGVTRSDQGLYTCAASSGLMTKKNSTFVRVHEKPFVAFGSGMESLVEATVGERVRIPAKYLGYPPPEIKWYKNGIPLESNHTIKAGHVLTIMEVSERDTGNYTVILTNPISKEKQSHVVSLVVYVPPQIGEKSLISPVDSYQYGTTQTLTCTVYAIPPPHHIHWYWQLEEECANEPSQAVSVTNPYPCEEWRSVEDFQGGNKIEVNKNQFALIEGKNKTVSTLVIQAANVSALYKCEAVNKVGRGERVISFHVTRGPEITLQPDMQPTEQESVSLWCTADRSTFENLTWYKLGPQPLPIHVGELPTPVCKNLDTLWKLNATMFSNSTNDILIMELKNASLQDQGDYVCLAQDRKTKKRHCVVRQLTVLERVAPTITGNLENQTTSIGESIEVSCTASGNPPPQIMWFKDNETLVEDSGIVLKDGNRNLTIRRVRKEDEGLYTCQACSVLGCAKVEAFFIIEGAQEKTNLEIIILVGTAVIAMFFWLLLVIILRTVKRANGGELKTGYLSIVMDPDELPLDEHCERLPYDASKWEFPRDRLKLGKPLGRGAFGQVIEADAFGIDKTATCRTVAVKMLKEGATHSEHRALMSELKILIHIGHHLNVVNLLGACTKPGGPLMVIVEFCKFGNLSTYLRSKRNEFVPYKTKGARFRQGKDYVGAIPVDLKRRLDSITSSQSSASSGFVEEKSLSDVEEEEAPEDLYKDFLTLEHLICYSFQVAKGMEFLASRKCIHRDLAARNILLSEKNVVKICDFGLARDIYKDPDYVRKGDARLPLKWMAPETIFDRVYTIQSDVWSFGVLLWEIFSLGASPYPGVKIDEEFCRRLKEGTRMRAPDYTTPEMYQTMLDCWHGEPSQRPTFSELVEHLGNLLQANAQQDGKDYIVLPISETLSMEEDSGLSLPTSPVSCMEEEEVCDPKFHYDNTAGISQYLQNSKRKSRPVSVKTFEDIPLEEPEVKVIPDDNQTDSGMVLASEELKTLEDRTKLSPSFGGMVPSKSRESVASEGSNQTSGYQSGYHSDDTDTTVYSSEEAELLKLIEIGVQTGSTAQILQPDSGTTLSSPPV
UniProt P13612: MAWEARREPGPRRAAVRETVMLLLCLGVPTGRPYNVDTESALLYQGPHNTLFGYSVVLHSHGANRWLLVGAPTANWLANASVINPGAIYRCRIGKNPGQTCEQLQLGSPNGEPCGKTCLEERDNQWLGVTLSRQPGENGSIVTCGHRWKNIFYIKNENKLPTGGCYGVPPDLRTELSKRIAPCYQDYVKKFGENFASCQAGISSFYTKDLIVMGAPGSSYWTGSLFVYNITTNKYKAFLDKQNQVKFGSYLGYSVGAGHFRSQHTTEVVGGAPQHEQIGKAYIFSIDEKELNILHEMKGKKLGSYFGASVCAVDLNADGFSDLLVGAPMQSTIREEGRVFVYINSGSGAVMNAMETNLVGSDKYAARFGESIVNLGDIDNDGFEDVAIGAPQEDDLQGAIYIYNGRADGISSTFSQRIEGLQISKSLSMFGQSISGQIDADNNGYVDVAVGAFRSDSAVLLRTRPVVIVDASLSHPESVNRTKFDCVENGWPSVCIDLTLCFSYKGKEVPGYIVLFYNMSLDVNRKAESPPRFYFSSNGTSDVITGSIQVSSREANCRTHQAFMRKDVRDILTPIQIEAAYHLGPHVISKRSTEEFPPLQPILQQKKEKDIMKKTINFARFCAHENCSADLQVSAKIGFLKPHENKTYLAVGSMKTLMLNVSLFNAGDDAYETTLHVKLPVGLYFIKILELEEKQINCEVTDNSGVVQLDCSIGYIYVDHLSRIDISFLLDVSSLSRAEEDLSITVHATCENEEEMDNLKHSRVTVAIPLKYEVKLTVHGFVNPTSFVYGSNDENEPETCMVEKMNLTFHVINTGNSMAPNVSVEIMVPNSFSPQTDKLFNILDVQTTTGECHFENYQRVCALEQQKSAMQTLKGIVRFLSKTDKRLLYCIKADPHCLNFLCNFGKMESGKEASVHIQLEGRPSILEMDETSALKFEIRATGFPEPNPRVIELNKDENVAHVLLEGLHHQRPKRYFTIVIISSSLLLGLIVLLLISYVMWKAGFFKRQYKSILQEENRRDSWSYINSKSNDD
UniProt P05556: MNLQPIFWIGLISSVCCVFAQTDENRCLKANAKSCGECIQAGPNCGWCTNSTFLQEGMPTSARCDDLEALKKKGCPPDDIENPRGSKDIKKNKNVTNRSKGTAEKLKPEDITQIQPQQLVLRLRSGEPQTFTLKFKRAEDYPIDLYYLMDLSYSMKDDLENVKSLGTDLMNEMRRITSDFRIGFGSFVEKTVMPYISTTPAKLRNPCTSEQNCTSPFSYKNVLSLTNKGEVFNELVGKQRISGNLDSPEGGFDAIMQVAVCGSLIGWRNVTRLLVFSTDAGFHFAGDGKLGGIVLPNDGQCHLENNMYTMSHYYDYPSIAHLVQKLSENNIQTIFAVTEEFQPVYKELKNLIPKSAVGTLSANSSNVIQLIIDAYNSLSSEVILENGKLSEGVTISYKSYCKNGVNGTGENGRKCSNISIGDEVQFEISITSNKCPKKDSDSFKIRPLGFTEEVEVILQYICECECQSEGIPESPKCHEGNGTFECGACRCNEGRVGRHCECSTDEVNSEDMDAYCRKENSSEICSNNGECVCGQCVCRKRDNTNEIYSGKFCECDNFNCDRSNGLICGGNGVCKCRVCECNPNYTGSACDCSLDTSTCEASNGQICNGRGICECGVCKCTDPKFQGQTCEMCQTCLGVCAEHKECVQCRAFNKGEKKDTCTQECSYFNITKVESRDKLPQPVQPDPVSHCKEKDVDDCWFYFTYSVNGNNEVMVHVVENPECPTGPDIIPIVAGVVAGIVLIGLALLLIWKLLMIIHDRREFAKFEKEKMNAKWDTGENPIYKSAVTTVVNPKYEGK

Measured: binding

recombinant GST-tagged Sdc1 ectodomain (GST-S1ED) (from UniProt P08515 1-218; P18828 23-255)
binds: [1] | [2] | [3] | [4]
